Experimental data: the supplement of paper PMC10849652
The other results are listed elsewhere or left out.

Chains of the proteins cited; added tags and fusions are not shown. Lines headed by an entry give the natural chain unless they say otherwise; changes in a name come on top.
UniProt Q9H5K3: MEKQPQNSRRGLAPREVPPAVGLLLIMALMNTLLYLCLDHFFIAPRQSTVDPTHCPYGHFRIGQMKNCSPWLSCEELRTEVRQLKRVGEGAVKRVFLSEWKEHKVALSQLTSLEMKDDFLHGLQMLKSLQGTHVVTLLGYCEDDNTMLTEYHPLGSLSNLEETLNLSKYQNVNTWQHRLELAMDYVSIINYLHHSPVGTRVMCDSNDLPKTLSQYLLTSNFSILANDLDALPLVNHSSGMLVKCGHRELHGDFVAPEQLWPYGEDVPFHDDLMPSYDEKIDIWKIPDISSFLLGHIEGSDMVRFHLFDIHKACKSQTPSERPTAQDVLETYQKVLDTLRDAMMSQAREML
UniProt Q8ND30: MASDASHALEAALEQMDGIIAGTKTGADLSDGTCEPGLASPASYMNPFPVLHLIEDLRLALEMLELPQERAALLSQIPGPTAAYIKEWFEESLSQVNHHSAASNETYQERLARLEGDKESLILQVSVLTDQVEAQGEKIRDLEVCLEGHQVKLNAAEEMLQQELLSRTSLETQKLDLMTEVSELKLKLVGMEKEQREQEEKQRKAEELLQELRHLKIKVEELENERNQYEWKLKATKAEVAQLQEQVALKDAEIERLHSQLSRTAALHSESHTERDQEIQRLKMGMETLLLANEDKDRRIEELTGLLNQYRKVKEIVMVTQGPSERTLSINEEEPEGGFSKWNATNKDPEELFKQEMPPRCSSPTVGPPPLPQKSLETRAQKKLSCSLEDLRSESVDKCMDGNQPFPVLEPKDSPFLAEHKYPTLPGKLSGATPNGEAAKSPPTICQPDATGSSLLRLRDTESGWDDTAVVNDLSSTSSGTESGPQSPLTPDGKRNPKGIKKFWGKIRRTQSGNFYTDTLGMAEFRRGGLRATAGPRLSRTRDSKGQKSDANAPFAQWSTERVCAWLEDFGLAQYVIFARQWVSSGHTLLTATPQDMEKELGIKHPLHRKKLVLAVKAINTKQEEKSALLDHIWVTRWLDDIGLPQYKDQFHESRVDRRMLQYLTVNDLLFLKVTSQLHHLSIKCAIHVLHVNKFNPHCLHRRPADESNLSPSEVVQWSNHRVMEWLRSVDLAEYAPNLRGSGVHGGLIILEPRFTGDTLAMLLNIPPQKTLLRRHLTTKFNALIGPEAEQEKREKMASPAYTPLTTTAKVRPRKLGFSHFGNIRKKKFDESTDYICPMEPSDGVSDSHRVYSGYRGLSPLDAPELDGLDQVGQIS
UniProt Q9HCU8: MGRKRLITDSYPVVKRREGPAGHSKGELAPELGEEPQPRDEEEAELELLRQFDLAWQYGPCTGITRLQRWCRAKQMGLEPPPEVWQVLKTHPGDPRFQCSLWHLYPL
UniProt Q9Y6A1: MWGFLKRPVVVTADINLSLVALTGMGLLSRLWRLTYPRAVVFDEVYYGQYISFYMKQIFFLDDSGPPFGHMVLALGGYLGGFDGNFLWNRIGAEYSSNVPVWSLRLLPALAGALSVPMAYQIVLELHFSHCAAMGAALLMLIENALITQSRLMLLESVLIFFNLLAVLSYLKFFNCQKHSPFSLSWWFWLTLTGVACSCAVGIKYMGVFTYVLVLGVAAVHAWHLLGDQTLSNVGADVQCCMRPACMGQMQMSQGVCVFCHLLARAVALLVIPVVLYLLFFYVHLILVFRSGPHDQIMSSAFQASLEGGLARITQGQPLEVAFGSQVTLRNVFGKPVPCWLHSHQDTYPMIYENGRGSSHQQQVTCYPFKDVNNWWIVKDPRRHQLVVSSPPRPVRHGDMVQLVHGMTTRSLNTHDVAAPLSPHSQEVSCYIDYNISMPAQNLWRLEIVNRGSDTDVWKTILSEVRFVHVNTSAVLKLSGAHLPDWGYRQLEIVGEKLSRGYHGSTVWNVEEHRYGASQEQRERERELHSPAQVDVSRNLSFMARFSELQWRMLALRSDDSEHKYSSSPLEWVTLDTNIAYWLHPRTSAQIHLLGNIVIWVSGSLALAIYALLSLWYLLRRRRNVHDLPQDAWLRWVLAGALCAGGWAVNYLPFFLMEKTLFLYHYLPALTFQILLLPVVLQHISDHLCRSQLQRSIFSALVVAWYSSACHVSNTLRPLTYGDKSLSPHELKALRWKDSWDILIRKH
UniProt O00592: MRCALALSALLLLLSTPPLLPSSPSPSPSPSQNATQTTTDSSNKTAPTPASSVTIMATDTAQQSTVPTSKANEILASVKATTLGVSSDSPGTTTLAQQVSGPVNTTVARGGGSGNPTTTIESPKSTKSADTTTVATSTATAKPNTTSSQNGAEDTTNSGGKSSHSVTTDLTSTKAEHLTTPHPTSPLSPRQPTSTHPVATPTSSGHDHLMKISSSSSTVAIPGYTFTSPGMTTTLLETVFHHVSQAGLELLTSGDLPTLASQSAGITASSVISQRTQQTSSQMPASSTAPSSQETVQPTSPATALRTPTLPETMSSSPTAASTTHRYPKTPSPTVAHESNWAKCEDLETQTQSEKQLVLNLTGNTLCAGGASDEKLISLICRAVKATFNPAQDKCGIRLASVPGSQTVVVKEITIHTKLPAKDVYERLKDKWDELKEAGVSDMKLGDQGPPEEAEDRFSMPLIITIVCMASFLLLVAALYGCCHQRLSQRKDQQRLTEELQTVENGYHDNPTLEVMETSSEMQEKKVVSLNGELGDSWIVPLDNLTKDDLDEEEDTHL
UniProt Q9Y4D7: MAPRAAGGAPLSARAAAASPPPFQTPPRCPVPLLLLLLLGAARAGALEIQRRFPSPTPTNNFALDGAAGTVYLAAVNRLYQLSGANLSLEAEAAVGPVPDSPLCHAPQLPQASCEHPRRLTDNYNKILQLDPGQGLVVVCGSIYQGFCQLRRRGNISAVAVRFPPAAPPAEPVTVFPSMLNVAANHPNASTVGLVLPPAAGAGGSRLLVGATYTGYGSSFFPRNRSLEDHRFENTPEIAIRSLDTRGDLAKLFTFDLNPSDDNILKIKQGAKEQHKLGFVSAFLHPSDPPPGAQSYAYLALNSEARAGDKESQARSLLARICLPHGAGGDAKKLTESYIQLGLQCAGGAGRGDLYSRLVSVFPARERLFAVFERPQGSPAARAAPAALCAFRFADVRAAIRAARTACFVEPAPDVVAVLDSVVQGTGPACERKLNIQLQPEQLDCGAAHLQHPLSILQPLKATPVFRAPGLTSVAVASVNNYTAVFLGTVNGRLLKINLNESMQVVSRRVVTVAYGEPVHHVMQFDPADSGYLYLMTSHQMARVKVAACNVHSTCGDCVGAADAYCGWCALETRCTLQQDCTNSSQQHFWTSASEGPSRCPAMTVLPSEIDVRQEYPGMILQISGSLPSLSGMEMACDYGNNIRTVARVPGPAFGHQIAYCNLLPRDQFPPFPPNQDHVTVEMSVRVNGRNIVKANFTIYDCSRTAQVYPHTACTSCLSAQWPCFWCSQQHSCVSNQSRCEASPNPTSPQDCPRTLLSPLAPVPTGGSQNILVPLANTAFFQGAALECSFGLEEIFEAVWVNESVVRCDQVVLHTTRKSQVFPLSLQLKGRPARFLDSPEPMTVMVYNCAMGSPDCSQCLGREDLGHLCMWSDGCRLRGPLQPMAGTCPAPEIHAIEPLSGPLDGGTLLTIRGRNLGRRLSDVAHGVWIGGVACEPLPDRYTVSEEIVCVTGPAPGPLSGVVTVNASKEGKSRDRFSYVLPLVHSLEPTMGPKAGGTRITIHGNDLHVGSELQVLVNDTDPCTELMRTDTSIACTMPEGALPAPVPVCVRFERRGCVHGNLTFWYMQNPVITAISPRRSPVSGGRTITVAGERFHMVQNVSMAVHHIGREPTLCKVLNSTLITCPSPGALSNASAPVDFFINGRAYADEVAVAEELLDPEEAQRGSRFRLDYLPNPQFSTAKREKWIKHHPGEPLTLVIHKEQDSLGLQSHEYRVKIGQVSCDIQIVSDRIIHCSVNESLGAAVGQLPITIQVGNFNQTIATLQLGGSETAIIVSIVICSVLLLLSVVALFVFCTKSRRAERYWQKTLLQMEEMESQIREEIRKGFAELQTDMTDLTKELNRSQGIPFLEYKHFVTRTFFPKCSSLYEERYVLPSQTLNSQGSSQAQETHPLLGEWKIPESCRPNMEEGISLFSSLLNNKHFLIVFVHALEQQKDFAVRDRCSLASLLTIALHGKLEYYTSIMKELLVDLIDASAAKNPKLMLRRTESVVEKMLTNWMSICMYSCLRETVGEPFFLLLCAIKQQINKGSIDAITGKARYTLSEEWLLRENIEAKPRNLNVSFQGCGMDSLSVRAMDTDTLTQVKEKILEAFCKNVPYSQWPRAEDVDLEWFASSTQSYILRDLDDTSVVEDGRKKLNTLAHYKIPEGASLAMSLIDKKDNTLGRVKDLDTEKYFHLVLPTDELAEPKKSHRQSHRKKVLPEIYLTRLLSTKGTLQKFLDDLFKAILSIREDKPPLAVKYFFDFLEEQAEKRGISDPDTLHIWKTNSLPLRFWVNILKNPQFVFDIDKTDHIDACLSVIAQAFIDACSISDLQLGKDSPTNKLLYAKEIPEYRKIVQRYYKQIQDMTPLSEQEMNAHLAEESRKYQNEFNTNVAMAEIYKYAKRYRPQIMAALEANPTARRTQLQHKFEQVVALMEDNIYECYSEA
UniProt O00469: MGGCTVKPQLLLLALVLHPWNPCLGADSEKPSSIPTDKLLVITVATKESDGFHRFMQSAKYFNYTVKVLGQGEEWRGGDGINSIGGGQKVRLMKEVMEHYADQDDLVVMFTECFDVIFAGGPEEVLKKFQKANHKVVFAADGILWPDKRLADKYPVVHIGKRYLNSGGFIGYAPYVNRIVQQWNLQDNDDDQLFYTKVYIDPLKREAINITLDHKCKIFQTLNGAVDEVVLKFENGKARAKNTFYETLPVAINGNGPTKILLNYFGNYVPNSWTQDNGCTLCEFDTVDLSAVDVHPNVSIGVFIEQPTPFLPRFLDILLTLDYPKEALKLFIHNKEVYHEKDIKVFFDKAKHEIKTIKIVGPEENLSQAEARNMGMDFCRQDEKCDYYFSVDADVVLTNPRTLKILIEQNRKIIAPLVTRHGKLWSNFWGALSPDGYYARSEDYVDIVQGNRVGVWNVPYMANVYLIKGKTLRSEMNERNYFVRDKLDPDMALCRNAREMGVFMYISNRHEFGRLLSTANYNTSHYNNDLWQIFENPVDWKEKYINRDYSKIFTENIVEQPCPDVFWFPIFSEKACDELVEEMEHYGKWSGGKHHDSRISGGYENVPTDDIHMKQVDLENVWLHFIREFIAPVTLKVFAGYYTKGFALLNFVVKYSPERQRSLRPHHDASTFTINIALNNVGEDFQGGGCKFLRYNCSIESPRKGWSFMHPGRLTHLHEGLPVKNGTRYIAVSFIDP
UniProt Q9H237: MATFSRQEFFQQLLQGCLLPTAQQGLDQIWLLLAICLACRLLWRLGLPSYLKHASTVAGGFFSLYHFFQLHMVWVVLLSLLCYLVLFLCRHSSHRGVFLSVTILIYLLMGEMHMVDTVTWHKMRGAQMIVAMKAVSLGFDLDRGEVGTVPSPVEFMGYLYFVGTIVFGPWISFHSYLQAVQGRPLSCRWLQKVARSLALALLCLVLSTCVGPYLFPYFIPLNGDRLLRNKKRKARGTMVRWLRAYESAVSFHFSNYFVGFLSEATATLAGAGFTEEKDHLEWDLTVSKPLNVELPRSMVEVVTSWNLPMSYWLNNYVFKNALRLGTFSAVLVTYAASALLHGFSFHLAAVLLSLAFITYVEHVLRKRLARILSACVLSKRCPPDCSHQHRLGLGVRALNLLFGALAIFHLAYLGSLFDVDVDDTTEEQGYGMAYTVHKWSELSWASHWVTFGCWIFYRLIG
UniProt Q9HBL7: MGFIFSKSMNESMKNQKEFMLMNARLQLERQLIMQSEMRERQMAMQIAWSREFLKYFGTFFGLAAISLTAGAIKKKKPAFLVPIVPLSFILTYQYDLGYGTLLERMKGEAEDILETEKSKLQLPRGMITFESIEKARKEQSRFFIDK
UniProt P62937, whole entry, looked up: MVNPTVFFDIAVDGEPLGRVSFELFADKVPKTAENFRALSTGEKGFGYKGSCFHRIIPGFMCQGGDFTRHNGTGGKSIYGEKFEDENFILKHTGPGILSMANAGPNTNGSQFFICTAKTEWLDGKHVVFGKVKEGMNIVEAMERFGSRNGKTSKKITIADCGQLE
UniProt Q8NEY8: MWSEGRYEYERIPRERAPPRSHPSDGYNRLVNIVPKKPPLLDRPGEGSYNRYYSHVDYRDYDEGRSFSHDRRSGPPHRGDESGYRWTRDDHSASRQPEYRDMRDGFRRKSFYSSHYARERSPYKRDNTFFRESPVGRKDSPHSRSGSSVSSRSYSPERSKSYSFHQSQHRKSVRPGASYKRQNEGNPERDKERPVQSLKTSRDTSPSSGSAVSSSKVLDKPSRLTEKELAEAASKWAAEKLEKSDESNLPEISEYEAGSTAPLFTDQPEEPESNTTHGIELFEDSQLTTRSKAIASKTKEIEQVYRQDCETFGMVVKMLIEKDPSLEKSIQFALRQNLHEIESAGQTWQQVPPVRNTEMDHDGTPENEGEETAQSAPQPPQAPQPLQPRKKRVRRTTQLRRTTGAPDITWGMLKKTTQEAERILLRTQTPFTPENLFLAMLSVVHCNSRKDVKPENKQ

Assays:
Test in all cases: log2 fold change, soluble protein after heating vs DMSO (PISA); higher = thermal stabilisation; K562 lysate, 10 uM; active = over 0.2 and 3.5 SD of the protein, either way, in both replicates (recomputed)
[1] = compound: CC(=O)c1cnc2ccc(-c3cc(Cl)c(O)c(Cl)c3)nc2c1N[C@H]1CC[C@H](CN(C)C)CC1
In short: (§1)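 Quantification was by TMTpro 16plex LC-MS/MS with equalised channel sums, applied to the supernatant after 21,000xg for 90 min. Samples were crude K562 extract at 1 mg/mL protein in PBS pH 7.4 with 1 mM MgCl2, treated with 10 μM compound for 30 min, heated for 3 min across 48°C-58°C, pooled and brought to 0.5% NP-40 at 4°C. Values are log-two fold changes in thermal stability relative to solvent controls, from duplicates.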

ralimetinib = compound: CC(C)(C)Cn1c(N)nc2ccc(-c3[nH]c(C(C)(C)C)nc3-c3ccc(F)cc3)nc21 [ralimetinib]
In short: as §1

[2] = compound: CC(C)(O)CC(=O)NCCn1ccc2ncnc(Nc3ccc(Oc4cccc(C(F)(F)F)c4)c(Cl)c3)c21
In short: as §1

[3] = compound: CC(C)C1=C2N=C(C=C(N2N=C1)NCC3=CC=CC=C3)NCCCCCCN
In short: as §1

[4] = compound: CC1=C(C(CC(=O)N1)C2=CC=C(C=C2)C(F)(F)F)C(=O)NC3=C(C=C4C(=C3)C=NN4)F
In short: as §1

[5] = compound: CC1=C(C2=C(C=C1)C(=O)C3=CC=CC=C3N2CCCN)C
In short: as §1

[6] = compound: CC1=C(C=C(C=C1)NC(=O)C2=CC(=CC=C2)C(C)(C)C#N)NC3=CC4=C(C=C3)N=CN(C4=O)C
In short: as §1

[7] = compound: CC1=C(C=C(C=C1)NC(=O)C2=CC(=CC=C2)N(C)C)NC(=O)C3=CC=C(C=C3)O
In short: as §1

[8] = compound: CC1=CC=C(C=C1)SC2=C3C=C(SC3=CN=C2)C(=O)N
In short: as §1

vemurafenib = compound: CCCS(=O)(=O)Nc1ccc(F)c(C(=O)c2c[nH]c3ncc(-c4ccc(Cl)cc4)cc23)c1F [vemurafenib]
In short: as §1

[9] = compound: CCCS(=O)(=O)Nc1ccc(F)c(C(=O)c2c[nH]c3ncc(Cl)cc23)c1F
In short: as §1

[10] = compound: CC[C@@H]1C(=O)N(C)c2cnc(Nc3ccc(C(=O)NC4CCN(C)CC4)cc3OC)nc2N1C1CCCC1
In short: as §1

volasertib = compound: CC[C@@H]1C(=O)N(C)c2cnc(Nc3ccc(C(=O)N[C@H]4CC[C@H](N5CCN(CC6CC6)CC5)CC4)cc3OC)nc2N1C(C)C [volasertib]
In short: as §1

[11] = compound: CCn1c(C(=O)N(C2CC2)C2CC2)cc2c3c(ncn3C)c(Nc3cc(C)n(C)n3)nc21
In short: as §1

[12] = compound: CCn1cc(-c2ccnc3[nH]c(-c4cccc(CN(C)C)c4)cc23)c(-c2ccc(NC(=O)N(C)C)cc2)n1
In short: as §1

[13] = compound: CN1CCC(CNc2ccc3ncc(-c4cccc(OC(F)(F)F)c4)n3n2)CC1
In short: as §1

saracatinib = compound: CN1CCN(CCOc2cc(OC3CCOCC3)c3c(Nc4c(Cl)ccc5c4OCO5)ncnc3c2)CC1 [saracatinib]
In short: as §1

sotrastaurin = compound: CN1CCN(c2nc(C3=C(c4c[nH]c5ccccc45)C(=O)NC3=O)c3ccccc3n2)CC1 [sotrastaurin]
In short: as §1

ibrutinib = compound: C=CC(=O)N1CCC[C@@H](n2nc(-c3ccc(Oc4ccccc4)cc3)c3c(N)ncnc32)C1 [ibrutinib]
In short: as §1

barasertib = compound: CCN(CCCOc1ccc2c(Nc3cc(CC(=O)Nc4cccc(F)c4)[nH]n3)ncnc2c1)CCOP(=O)(O)O [barasertib]
In short: as §1

Measured: log2 fold change

POMGNT2 (UniProt Q8NAT1)
inactive: [1] 0.059 | ralimetinib 0.025 | [2] -0.04 | [3] -0.047 | [4] 0.083 | [5] -0.004 | [6] 0.1 | [7] 0.007 | [8] -0.017 | vemurafenib 0.049 | [9] -0.128 | [10] 0.03 | volasertib 0.089 | [11] -0.051 | [12] -0.048 | [13] 0.04 | saracatinib 0.007 | sotrastaurin -0.095

POMK (UniProt Q9H5K3)
inactive: ibrutinib 0.021 | ralimetinib 0.074 | [2] -0.079 | [3] 0.061 | [5] -0.012 | [6] -0.013 | [7] 0.047 | vemurafenib 0.06 | barasertib 0.063 | [10] 0.016 | [11] 0.082 | [12] 0.037 | [13] -0.083 | saracatinib -0.004 | sotrastaurin 0.076

POLK (UniProt Q9UBT6)
inactive: ibrutinib 0.085 | [1] 0.107 | [4] -0.096 | [8] -0.15 | [9] -0.044 | barasertib -0.306 | volasertib 0.042

PPFIBP2 (UniProt Q8ND30)
inactive: [10] -0.049 | [12] 0.051 | [13] 0.068

POLD4 (UniProt Q9HCU8)
inactive: [1] -0.096 | ralimetinib 0.022 | [2] -0.148 | [3] 0.059 | [4] -0.114 | [5] 0.012 | [6] 0.091 | [7] -0.01 | [8] 0.01 | vemurafenib 0.116 | [9] 0.008 | [10] 0.022 | volasertib -0.123 | [11] 0.002 | saracatinib 0.013 | sotrastaurin 0.04

Fetched one by one from above, 2 records:
POMGNT2 (UniProt Q8NAT1)
inactive: [1] 0.059 | ralimetinib 0.025 | [2] -0.04 | [3] -0.047 | [4] 0.083 | [5] -0.004 | [6] 0.1 | [7] 0.007 | [8] -0.017 | vemurafenib 0.049 | [9] -0.128 | [10] 0.03 | volasertib 0.089 | [11] -0.051 | [12] -0.048 | [13] 0.04 | saracatinib 0.007 | sotrastaurin -0.095

POLK (UniProt Q9UBT6)
inactive: ibrutinib 0.085 | [1] 0.107 | [4] -0.096 | [8] -0.15 | [9] -0.044 | barasertib -0.306 | volasertib 0.042

The listing continues.

PLPPR3 isoform 3 (UniProt Q6T4P5)
inactive: ralimetinib 0.232 | [2] -0.171 | [5] 0.068 | [7] -0.101 | [11] 0.209 | saracatinib 0.003

POMT1 (UniProt Q9Y6A1)
inactive: [1] 0.067 | [5] -0.164 | [8] 0.191 | [9] -0.079 | volasertib -0.018 | saracatinib 0.15

PODXL (UniProt O00592)
inactive: [12] -0.016 | [13] 0.015

PLEKHH2 (UniProt E5RGK1)
inactive: [1] -0.025 | [5] -0.086 | [6] 0.014 | [8] 0.036 | vemurafenib -0.08 | [9] -0.004 | [10] -0.071 | volasertib -0.012 | [12] 0.408 | [13] 0.026 | saracatinib -0.136 | sotrastaurin -0.024

POF1B isoform 1 (UniProt Q8WVV4)
inactive: [5] 0.225 | [12] 0.313 | [13] -0.172 | saracatinib -0.021

PLXND1 (UniProt Q9Y4D7)
inactive: ibrutinib 0.138 | ralimetinib -0.081 | [2] -0.07 | [3] 0.046 | [4] -0.023 | [5] 0.112 | [6] -0.033 | [7] 0.218 | barasertib 0.045 | [11] -0.214 | saracatinib 0.018 | sotrastaurin 0.012

POLR2K (UniProt P53803)
inactive: ibrutinib -0.044 | ralimetinib 0.026 | [2] -0.114 | [5] 0.044 | [6] -0.122 | [7] 0.018 | vemurafenib -0.074 | barasertib 0.094 | [10] -0.158 | [11] 0.043 | [12] -0.049 | [13] 0.08 | saracatinib 0.008 | sotrastaurin 0.037

PPARGC1B (UniProt Q86YN6)
inactive: ralimetinib 0.089 | [2] -0.016 | [3] 0.06 | [7] 0.079 | [11] 0.081

PLEKHM1 (UniProt Q9Y4G2)
inactive: ralimetinib -0.003 | [2] -0.011 | [3] 0.053 | [6] 0.046 | [7] -0.088 | vemurafenib -0.062 | [10] -0.149 | [11] -0.023 | sotrastaurin 0.011

PLOD2 isoform 2 (UniProt O00469)
inactive: ibrutinib -0.07 | [5] -0.005 | vemurafenib -0.037 | barasertib 0.203 | [10] -0.925 | saracatinib 0.273

PORCN (UniProt Q9H237)
inactive: [4] -0.227

PLEKHG4 (UniProt Q58EX7)
inactive: ralimetinib -0.009 | [2] -0.018 | [4] -0.105 | [5] -0.012 | [6] -0.027 | [7] 0.016 | vemurafenib -0.019 | [10] 0.015 | [11] 0.049 | [12] 0.052 | [13] 0.019 | saracatinib 0.024 | sotrastaurin 0.036

PLGRKT (UniProt Q9HBL7)
inactive: ibrutinib 0.11 | ralimetinib 0.034 | [2] -0.092 | [3] 0.004 | [4] -0.005 | [5] -0.042 | [6] 0.057 | [7] 0.05 | vemurafenib 0.162 | barasertib 0.089 | [10] 0.139 | [11] -0.004 | saracatinib -0.054 | sotrastaurin 0.212

PMS1 (UniProt P54277)
inactive: ibrutinib 0 | ralimetinib -0.015 | [2] -0.021 | [3] 0.025 | [4] -0.052 | [5] 0.022 | [6] -0.02 | [7] 0.009 | vemurafenib 0.037 | barasertib 0.193 | [10] 0.019 | [11] -0.028 | [12] -0.01 | [13] -0.051 | saracatinib 0.016 | sotrastaurin -0.002

PPIA isoform 2 (UniProt P62937)
inactive: ibrutinib 0.015 | [4] -0.068 | barasertib -0.024

POU6F1, A0A1C7CYV8
inactive: ralimetinib -0.131 | [2] 0.182 | [7] 0 | [11] -0.029

PPHLN1 isoform 3 (UniProt Q8NEY8)
inactive: ralimetinib 0.05 | [2] -0.099 | [7] 0.025 | vemurafenib -0.144 | [11] -0.175
